Data: paper PMC6089664 (Clinical pharmacology and therapeutics, 2017)
Where two headings read alike, the source gives them in different places.

Tested on: IFNα-stimulated STAT-1 phosphorylation (pSTAT-1)
Settings: Homo sapiens, read-out: IC50, IFN-α stimulated pSTAT-1

Q: How did the IC50 (B-cell) turn out when `CCS(=O)(=O)N1CC(CC#N)(n2cc(-c3ncnc4[nH]ccc34)cn2)C1` [baricitinib, Baricitinib] was run?
A: 190 nM

Q: And the IC50 (CD4+ T)?
A: 51.1 nM

Q: What about the IC50 (Monocyte) of the same compound?
A: 138 nM

Q: And the IC50 (T-cell)?
A: 43.3 nM
